# Laboratory results as given in PubChem BioAssay AID504834 (National Center for Advancing Translational Sciences (NCATS), 2011).
# The campaign covered roughly 320,000 compounds. About 22,000 (6.9%) were called active. Inconclusive means that the source gave no clear call. Such entries were picked first, then a sample of the others. Calls follow the shape of the dose curve; as a rule, active = well fitted inhibition curve with a large enough effect; inconclusive = small, poorly fitted or top-dose-only effect, or another doubt; inactive = no such curve, though single readings can be large or run the other way. Where the call is inconclusive, the potency comes from a doubtful curve fit.
# Experiment: Primary qHTS for delayed death inhibitors of the malarial parasite plastid, 96 hour incubation
# Settings: P. falciparum luciferase reporter growth; series mostly up to 28.7 µM
# Outline: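 P. falciparum expressing integrated firefly luciferase, in erythrocytes at 2% hematocrit, 0.05% parasitemia, incubated with compounds 96 h at 37 C, 5% CO2. Growth inhibition read as loss of luminescence; two-generation exposure targets delayed-death apicoplast inhibitors.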
# % is scaled to controls: 0 for no effect and ±100 for the full control effect; potency is read from the fitted curve at half-maximal effect.
Compound,Potency,"activity change, negative = inhibition"
Cn1cc(C(=O)NCc2ccccc2)c2ccccc21,"inconclusive: 13.1 µM [inhibitor, partial curve, poor fit]",
COC(=O)c1cc(C(=O)Nc2cc(C)ccn2)cc([N+](=O)[O-])c1,inactive,
CNCc1c(OCc2ccc(F)cc2)ccc2ccccc12,"inconclusive: 4.15 µM [inhibitor, single point]",
CCN1CCN(C(=O)C2CCC(CNS(=O)(=O)c3ccc(NC(C)=O)cc3)CC2)CC1 (stereo not given),"inconclusive: 0.0657 µM [inhibitor, full curve, poor fit]",
Cc1cc(NC(=O)Cc2ccccc2)no1,"inconclusive: 8.28 µM [inhibitor, partial curve, poor fit]",
CC(C)(C)CC(=O)NC(=S)Nc1ccccc1[N+](=O)[O-],inactive,
COc1ccc(N2CCN(C(=O)CCc3c[nH]c4ccccc34)CC2)cc1,"inconclusive: 4.15 µM [inhibitor, partial curve, poor fit]",
CCOc1cc(C2C3=C(CCCC3=O)NC3=C2C(=O)CCC3)cc(Cl)c1O,inactive,
Cc1ccc(Cl)cc1NC(=O)Nn1cnnc1,inactive,
COc1ccc(NC(=O)CNC(c2ccccc2)c2ccccc2)cc1,inactive,
Cc1cccc(C)c1NC(=O)CN(C)CC(=O)Nc1ccc(F)c(Cl)c1,"inconclusive: 18.5 µM [inhibitor, single point]",
CCn1c(NC(=O)c2ccccc2)nc2ccccc21,active: 10.4 µM,
O=c1[nH]c(Cc2ccccc2)nc2ccccc12,inactive,
CCOC(=O)NC1(C(F)(F)F)C(=O)N(Cc2ccccn2)C2=C1C(=O)CC(C)(C)C2 (stereo not given),"inconclusive: 0.0738 µM [inhibitor, full curve, poor fit]",
CCCC1CCCCN1 (stereo not given),inactive,
Cc1cccc(C(=O)N[C@H](C(=O)NCCc2ccc(Cl)cc2)C(C)C)c1,inactive,
CCOC(=O)c1sc2nc(CC(=O)OC)nc(NCCN3CCOCC3)c2c1C,"inconclusive: 18.5 µM [inhibitor, single point]",
COc1ccccc1CC(=O)Nc1ccc2c(c1)CCC2,"inconclusive: 9.28 µM [inhibitor, single point]",
CC(C)c1ccc(NC(=O)CSc2nc3ccsc3c(=O)n2Cc2ccc(C(=O)O)cc2)cc1,"inconclusive: 4.65 µM [inhibitor, partial curve, poor fit]",
O=C(COc1ccccc1)N1CCN(C(=O)COc2ccccc2)CC1,"inconclusive: 13.1 µM [inhibitor, partial curve]",
C=Cn1ccnc1P(=S)(c1ccn(C)c1)c1nccn1C=C,active: 7.38 µM,
COCCCN(C(=O)CCOc1ccc(C)cc1)c1c(N)n(Cc2ccccc2)c(=O)[nH]c1=O,inactive,
Cc1nnc(NC(=O)CSc2nnc(-c3ccc(S(=O)(=O)N4CCCC4)cc3)n2C)s1,"inconclusive: 0.0928 µM [inhibitor, full curve, poor fit]",
COc1ccc(C(CNC(=O)c2cccc(S(=O)(=O)Nc3ccccc3OC)c2)N2CCOCC2)cc1 (stereo not given),"inconclusive: 4.15 µM [inhibitor, full curve, poor fit]",
COc1ccc(Cl)cc1NC(=O)C1CSC(c2ccncc2)=N1 (stereo not given),inactive,

Compound,Potency,"activity change, negative = inhibition"
CN(C)c1cccc(C(=O)NNC(=S)NC2CCCC2)c1,inactive,
Cc1ccc(Nc2nc(N)[nH]c(=O)c2N=O)cc1,"inconclusive: 10.4 µM [inhibitor, single point]",
CN(C)S(=O)(=O)c1cccc(NC(=S)N/N=C/C(c2ccccc2)c2ccccc2)c1,inactive,
O=C1CN(c2nc(-c3cccnc3)nc3scc(-c4ccccc4)c23)CCN1,"inconclusive: 6.57 µM [inhibitor, partial curve]",
COc1ccc(-n2c(N3CCN(C)CC3)nc3sc4c(c3c2=O)CCCCC4)cc1,,inactive: 7.97% [at 5.75 µM]
Cc1sc2ncnc(SCC(=O)NNC(=O)COc3cccc4ccccc34)c2c1C,"inconclusive: 10.4 µM [inhibitor, partial curve, poor fit]",
Cc1ccc(C)c(Cn2c(C(=O)OC(C)C)cc3c2ccn3C)c1,inactive,
CCOC(=O)c1cnc(SCc2nc(N)nc(Nc3ccc(F)cc3)n2)nc1N,"inconclusive: 5.22 µM [inhibitor, partial curve, poor fit]",
CC(C)CNC(CC(=O)O)c1ccccc1 (stereo not given),inactive,
O=C(CSc1ccccc1)Nc1ccc(N2CCOCC2)c(F)c1,inactive,
CC(C)(C)CC(=O)NC(=S)NCCc1ccccc1,active: 11.7 µM,
C[C@@]12C(=O)OC(=O)[C@]1(C)[C@H]1CC[C@@H]2O1,active: 1.02 µM,
COc1ccc(C2NC(=O)C(=O)/C2=C(\O)c2ccc(Cl)cc2)cc1OC (stereo not given),inactive,
O=C(c1ccc([N+](=O)[O-])cc1)N1CCc2ccccc2C1,inactive,
O=C(c1cccc(Oc2ccc([N+](=O)[O-])cc2Cl)c1)N1CCOCC1,"inconclusive: 18.5 µM [inhibitor, single point]",
COc1ccccc1OCc1nc(C#N)c(NCCCn2ccnc2)o1,inactive,
O=C(Nc1sc2c(c1C(=O)O)CCCC2)c1ccc(Cl)cc1,inactive,
Cc1cc(C)c(S(=O)(=O)C(C)C)c(=O)[nH]1,inactive,
COc1ccc(-c2nc(CS(=O)CC(=O)N3CCOCC3)c(C)o2)cc1OC (stereo not given),"inconclusive: 18.5 µM [inhibitor, single point]",
COC(C#CCCN(C)C)(c1ccccc1)c1ccccc1,"inconclusive: 0.415 µM [inhibitor, full curve, poor fit]",
O=C(COc1ccccc1)N=C1SC2CS(=O)(=O)CC2N1c1ccc(F)cc1F (stereo not given),inactive,
O=C(O)c1cccc(N/N=C/C2=C(Cl)c3cc(Cl)ccc3SC2)c1,active: 8.28 µM,
O=c1c2cccnc2[nH]c(=S)n1CCC1=CCCCC1,"inconclusive: 6.57 µM [inhibitor, partial curve, poor fit]",
O=C(Nc1ccc(F)cc1)Nc1cc(OCC(F)(F)F)cc(OCC(F)(F)F)c1,"inconclusive: 0.0657 µM [inhibitor, full curve, poor fit]",
CCOc1ccccc1N(C)C(=O)CCS(=O)(=O)c1ccc2c(c1)NC(=O)CO2,inactive,

# Already shown: three of the compounds above.
Compound,Potency,"activity change, negative = inhibition"
COc1ccccc1CC(=O)Nc1ccc2c(c1)CCC2,"inconclusive: 9.28 µM [inhibitor, single point]",
CC(C)c1ccc(NC(=O)CSc2nc3ccsc3c(=O)n2Cc2ccc(C(=O)O)cc2)cc1,"inconclusive: 4.65 µM [inhibitor, partial curve, poor fit]",
O=C(COc1ccccc1)N1CCN(C(=O)COc2ccccc2)CC1,"inconclusive: 13.1 µM [inhibitor, partial curve]",

# (list continues)

Compound,Potency,"activity change, negative = inhibition"
CC(=O)Oc1ccc(N(c2ccccc2)S(=O)(=O)c2ccc(C)cc2)cc1,inactive,
CCN1CCN(c2nc3ccccc3nc2NS(=O)(=O)c2ccc(NC(C)=O)cc2)CC1,"inconclusive: 14.7 µM [inhibitor, partial curve, poor fit]",
C=CCc1cc(Cl)ccc1OCCOCCNCCOC,"inconclusive: 20.8 µM [inhibitor, partial curve, poor fit]",
Cc1c(N=Cc2ccc(Cl)o2)c(=O)n(-c2ccccc2)n1C,inactive,
CCOC(=O)c1ccc(NC(=O)N2CCc3ccccc3C2)cc1,inactive,
CC(C)CN(C(=O)c1cccc(Cl)c1)c1c(N)n(CC(C)C)c(=O)[nH]c1=O,inactive,
N#Cc1ccsc1NC(=O)c1cccc([N+](=O)[O-])c1,inactive,
CSc1ccc(/C=N/NC(=O)CNc2cccc3ccccc23)cc1,inactive,
COc1ccc(C(CNC(=O)c2cc3c(s2)CCC(C)C3)N2CCOCC2)cc1 (stereo not given),"inconclusive: 18.5 µM [inhibitor, partial curve, poor fit]",
CCOc1ccc(C(=O)Nc2cnn(Cc3ccc(Cl)c(Cl)c3)c2)cc1,"inconclusive: 0.0928 µM [inhibitor, full curve, poor fit]",
COc1ccc(N2CC(C(=O)N3CCCC(C)C3)CC2=O)cc1 (stereo not given),"inconclusive: 11.7 µM [inhibitor, single point]",
O=C(O)c1cccc(-n2cccc2/C=C2/NC(=O)N(c3cccc(Cl)c3)C2=O)c1,inactive,
CC(C)CNC(=O)c1ccccc1NC(=O)c1ccccc1N(C)S(=O)(=O)c1ccccc1,"inconclusive: 18.5 µM [inhibitor, single point]",
CCOc1ccc(Cn2c3ccc(OC)cc3c3nc4ccccc4nc32)cc1OC,"inconclusive: 18.5 µM [inhibitor, single point]",
N#Cc1c(-c2ccccc2)nc(SCc2ccc([N+](=O)[O-])cc2)[nH]c1=O,"inconclusive: 14.7 µM [inhibitor, single point]",
COc1ccc(C(C(=O)NC2CCCC2)N(CCCO)C(=O)Cn2nnc(-c3ccc(C)o3)n2)cc1 (stereo not given),active: 3.7 µM,
Cc1ccc(S(=O)(=O)N(Cc2ccccc2F)C(=O)N2CCN(C)CC2)cc1,inactive,
Cc1nnc(Sc2nc3c(c(=O)n(C)c(=O)n3C)n2Cc2ccc(Cl)cc2)s1,"inconclusive: 9.28 µM [inhibitor, single point]",
CC1CC2(CCCC2)N(C(=O)c2ccccc2)Cc2ccccc21 (stereo not given),"inconclusive: 2.94 µM [inhibitor, full curve, poor fit]",
COc1ccccc1N1CCN(C(=O)CSc2nnc(NC(=O)C3CCC3)s2)CC1,"inconclusive: 0.0828 µM [inhibitor, full curve]",
CC(C)C(=O)N1CCC2(CC1)Oc1ccc(Cl)cc1C(=O)C21CC(c2ccccc2)=NO1 (stereo not given),"inconclusive: 14.7 µM [inhibitor, single point]",
CC(NC(=O)COc1ccc(N(C)S(=O)(=O)c2ccccc2)cc1)c1ccccc1 (stereo not given),"inconclusive: 10.4 µM [inhibitor, single point]",
CCOc1ccc2nc(CN3CCN(Cc4ccsc4)C(CCO)C3)ccc2c1 (stereo not given),inactive,
CC(OC(=O)COc1ccc(Nc2ccccc2)cc1)C(=O)N(C)c1ccccc1 (stereo not given),inactive,
Cc1ccc(NC(=O)CN2C(=O)N/C(=C/c3cc(C)n(-c4cccc(C(=O)O)c4)c3C)C2=O)cc1,"inconclusive: 4.15 µM [inhibitor, partial curve, poor fit]",
